According to paper PMC6639074:
These are yes or no findings as the source states them, for the method shown. In cells and extracts the contact can be indirect. A yes stands for co-enrichment or nearness to the bait. Other partners may have been found. Values belong to the binder of their own block, whether it stands above or below them.

Sequences of proteins named here, by UniProt entry; tags and fusion partners are left off. A change or cut given only in a name is not applied to a line headed by its entry. A line that says so, or that is headed by a name, gives the form on record, which may keep a tag or linker.
Rab5A(Q79L)-BirA*-HA-MAO (P20339, form named): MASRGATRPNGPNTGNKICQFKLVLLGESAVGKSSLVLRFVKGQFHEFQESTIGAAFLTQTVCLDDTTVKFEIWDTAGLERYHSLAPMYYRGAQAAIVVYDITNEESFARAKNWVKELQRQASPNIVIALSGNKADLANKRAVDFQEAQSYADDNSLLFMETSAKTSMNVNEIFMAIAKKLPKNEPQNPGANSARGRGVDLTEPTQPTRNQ
UniProt P20340: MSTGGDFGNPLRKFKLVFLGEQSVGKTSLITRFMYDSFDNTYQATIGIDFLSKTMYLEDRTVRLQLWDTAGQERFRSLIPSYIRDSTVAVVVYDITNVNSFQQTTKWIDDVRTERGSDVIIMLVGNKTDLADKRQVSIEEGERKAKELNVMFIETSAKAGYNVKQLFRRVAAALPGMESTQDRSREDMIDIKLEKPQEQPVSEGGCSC

Assays:
Assay in all cases: proximity labelling; MitoID: GTPase-BirA*-HA-MAO chimera on mitochondria of transiently transfected HEK293T cells, 50 uM biotin 18 h, streptavidin beads, mass spectrometry, biological triplicates; hits by WD scores and volcano plots against the GDP-locked forms
[1] = target: Rab11A(Q69L)-BirA*-HA-MAO (human)
[2] = target: Rab5A(Q79L)-BirA*-HA-MAO (human) (UniProt P20339)
[3] = target: Rab6A(Q72L)-BirA*-HA-MAO (human) (UniProt P20340)

binding [1]: binds
B1: Vps8 subunit of the CORVET complex (protein, UniProt Q8N3P4 1-1428)
chain: MENEPDHENVEQSLCAKTSEEELNKSFNLEASLSKFSYIDMDKELEFKNDLIDDKEFDIPQVDTPPTLESILNETDDEDESFILEDPTLLNIDTIDSHSYDTSSVASSDSGDRTNLKRKKKLPDSFSLHGSVMRHSLLKGISAQIVSAADKVDAGLPTAIAVSSLIAVGTSHGLALIFGKDQNQALRLCLGSTSVGGQYGAISALSINNDCSRLLCGFAKGQITMWDLASGKLLRSITDAHPPGTAILHIKFTDDPTLAICNDSGGSVFELTFKRVMGVRTCESRCLFSGSKGEVCCIEPLHSKPELKDHPITQFSLLAMASLTKILVIGLKPSLKVWMTFPYGRMDPSSVPLLAWHFVAVQNYVNPMLAFCRGDVVHFLLVKRDESGAIHVTKQKHLHLYYDLINFTWINSRTVVLLDSVEKLHVIDRQTQEELETVEISEVQLVYNSSHFKSLATGGNVSQALALVGEKACYQSISSYGGQIFYLGTKSVYVMMLRSWRERVDHLLKQDCLTEALALAWSFHEGKAKAVVGLSGDASKRKAIVADRMVEILFHYADRALKKCPDQGKIQVMEQHFQDMVPVIVDYCLLLQRKDLLFSQMYDKLSENSVAKGVFLECLEPYILSDKLVGITPQVMKDLIVHFQDKKLMENVEALIVHMDITSLDIQQVVLMCWENRLYDAMIYVYNRGMNEFISPMEKLFRVIAPPLNAGKTLTDEQVVMGNKLLVYISCCLAGRAYPLGDIPEDLVPLVKNQVFEFLIRLHSAEASPEEEIYPYIRTLLHFDTREFLNVLALTFEDFKNDKQAVEYQQRIVDILLKVMVENSDFTPSQVGCLFTFLARQLAKPDNTLFVNRTLFDQVLEFLCSPDDDSRHSERQQVLLELLQAGGIVQFEESRLIRMAEKAEFYQICEFMYEREHQYDKIIDCYLRDPLREEEVFNYIHNILSIPGHSAEEKQSVWQKAMDHIEELVSLKPCKAAELVATHFSGHIETVIKKLQNQVLLFKFLRSLLDPREGIHVNQELLQISPCITEQFIELLCQFNPTQVIETLQVLECYRLEETIQITQKYQLHEVTAYLLEKKGDIHGAFLIMLERLQSKLQEVTHQGENTKEDPSLKDVEDTMVETIALCQRNSHNLNQQQREALWFPLLEAMMAPQKLSSSAIPHLHSEALKSLTMQVLNSMAAFIALPSILQRILQDPVYGKGKLGEIQGLILGMLDTFNYEQTLLETTTSLLNQDLHWSLCNLRASVTRGLNPKQDYCSICLQQYKRRQEMADEIIVFSCGHLYHSFCLQNKECTVEFEGQTRWTCYKCSSSNKVGKLSENSSEIKKGRITPSQVKMSPSYHQSKGDPTAKKGTSEPVLDPQQIQAFDQLCRLYRGSSRLALLTELSQNRSSESYRPFSGSQSAPAFNSIFQNENFQLQLIPPPVTED

binding [2]: binds
binding [1]: binds
B2: RELCH/KIAA1468 (protein, UniProt Q9P260 1-1216)
chain: MAAMAPGGSGSGGGVNPFLSDSDEDDDEVAATEERRAVLRLGAGSGLDPGSAGSLSPQDPVALGSSARPGLPGEASAAAVALGGTGETPARLSIDAIAAQLLRDQYLLTALELHTELLESGRELPRLRDYFSNPGNFERQSGTPPGMGAPGVPGAAGVGGAGGREPSTASGGGQLNRAGSISTLDSLDFARYSDDGNRETDEKVAVLEFELRKAKETIQALRANLTKAAEHEVPLQERKNYKSSPEIQEPIKPLEKRALNFLVNEFLLKNNYKLTSITFSDENDDQDFELWDDVGLNIPKPPDLLQLYRDFGNHQVTGKDLVDVASGVEEDELEALTPIISNLPPTLETPQPAENSMLVQKLEDKISLLNSEKWSLMEQIRRLKSEMDFLKNEHFAIPAVCDSVQPPLDQLPHKDSEDSGQHPDVNSSDKGKNTDIHLSISDEADSTIPKENSPNSFPRREREGMPPSSLSSKKTVHFDKPNRKLSPAFHQALLSFCRMSADSRLGYEVSRIADSEKSVMLMLGRCLPHIVPNVLLAKREELIPLILCTACLHPEPKERDQLLHILFNLIKRPDDEQRQMILTGCVAFARHVGPTRVEAELLPQCWEQINHKYPERRLLVAESCGALAPYLPKEIRSSLVLSMLQQMLMEDKADLVREAVIKSLGIIMGYIDDPDKYHQGFELLLSALGDPSERVVSATHQVFLPAYAAWTTELGNLQSHLILTLLNKIEKLLREGEHGLDEHKLHMYLSALQSLIPSLFALVLQNAPFSSKAKLHGEVPQIEVTRFPRPMSPLQDVSTIIGSREQLAVLLQLYDYQLEQEGTTGWESLLWVVNQLLPQLIEIVGKINVTSTACVHEFSRFFWRLCRTFGKIFTNTKVKPQFQEILRLSEENIDSSAGNGVLTKATVPIYATGVLTCYIQEEDRKLLVGFLEDVMTLLSLSHAPLDSLKASFVELGANPAYHELLLTVLWYGVVHTSALVRCTAARMFELTLRGMSEALVDKRVAPALVTLSSDPEFSVRIATIPAFGTIMETVIQRELLERVKMQLASFLEDPQYQDQHSLHTEIIKTFGRVGPNAEPRFRDEFVIPHLHKLALVNNLQIVDSKRLDIATHLFEAYSALSCCFISEDLMVNHFLPGLRCLRTDMEHLSPEHEVILSSMIKECEQKVENKTVQEPQGSMSIAASLVSEDTKTKFLNKMGQLTTSGAMLANVFQRKK

binding [1]: binds
B3: EVI5 (protein, UniProt O60447 1-810)
chain: MVTNKMTAAFRNPSGKQVATDKVAEKLSSTLSWVKNTVSHTVSQMASQVASPSTSLHTTSSSTTLSTPALSPSSPSQLSPDDLELLAKLEEQNRLLETDSKSLRSVNGSRRNSGSSLVSSSSASSNLSHLEEDSWILWGRIVNEWEDVRKKKEKQVKELVHKGIPHHFRAIVWQLLCSAQSMPIKDQYSELLKMTSPCEKLIRRDIARTYPEHNFFKEKDSLGQEVLFNVMKAYSLVDREVGYCQGSAFIVGLLLMQMPEEEAFCVFVKLMQDYRLRELFKPSMAELGLCMYQFECMIQEHLPELFVHFQSQSFHTSMYASSWFLTIFLTTFPLPIATRIFDIFMSEGLEIVFRVGLALLQMNQAELMQLDMEGMLQHFQKVIPHQFDGVPDKLIQAAYQVKYNSKKMKKLEKEYTTIKTKEMEEQVEIKRLRTENRLLKQRIETLEKHKCSSNYNEDFVLQLEKELVQARLSEAESQCALKEMQDKVLDIEKRNNSLPDENNIARLQEELIAVKLREAEAIMGLKELRQQVKDLEEHWQRHLARTTGRWKDPPKKNAMNELQDELMTIRLREAETQAEIREIKQRMMEMETQNQINSNHLRRAEQEVISLQEKVQYLSAQNKGLLTQLSEAKRKQAEIECKNKEEVMAVRLREADSIAAVAELRQHIAELEIQKEEGKLQGQLNKSDSNQYIGELKDQIAELNHELRCLKGQRGFSGQPPFDGIHIVNHLIGDDESFHSSDEDFIDNSLQETGVGFPLHGKSGSMSLDPAVADGSESETEDSVLETRESNQVVQKERPPRRRESYSTTV

binding [3]: binds
B4: DENDD5A (protein, UniProt Q6IQ26 1-1287)
chain: MSGGGGGGGSAPSRFADYFVICGLDTETGLEPDELSALCQYIQASKARDGASPFISSTTEGENFEQTPLRRTFKSKVLARYPENVEWNPFDQDAVGMLCMPKGLAFKTQADPREPQFHAFIITREDGSRTFGFALTFYEEVTSKQICSAMQTLYHMHNAEYDVLHAPPADDRDQSSMEDGEDTPVTKLQRFNSYDISRDTLYVSKCICLITPMSFMKACRSVLEQLHQAVTSPQPPPLPLESYIYNVLYEVPLPPPGRSLKFSGVYGPIICQRPSTNELPLFDFPVKEVFELLGVENVFQLFTCALLEFQILLYSQHYQRLMTVAETITALMFPFQWQHVYVPILPASLLHFLDAPVPYLMGLHSNGLDDRSKLELPQEANLCFVDIDNHFIELPEDLPQFPNKLEFVQEVSEILMAFGIPPEGNLHCSESASKLKRLRASELVSDKRNGNIAGSPLHSYELLKENETIARLQALVKRTGVSLEKLEVREDPSSNKDLKVQCDEEELRIYQLNIQIREVFANRFTQMFADYEVFVIQPSQDKESWFTNREQMQNFDKASFLSDQPEPYLPFLSRFLETQMFASFIDNKIMCHDDDDKDPVLRVFDSRVDKIRLLNVRTPTLRTSMYQKCTTVDEAEKAIELRLAKIDHTAIHPHLLDMKIGQGKYEPGFFPKLQSDVLSTGPASNKWTKRNAPAQWRRKDRQKQHTEHLRLDNDQREKYIQEARTMGSTIRQPKLSNLSPSVIAQTNWKFVEGLLKECRNKTKRMLVEKMGREAVELGHGEVNITGVEENTLIASLCDLLERIWSHGLQVKQGKSALWSHLLHYQDNRQRKLTSGSLSTSGILLDSERRKSDASSLMPPLRISLIQDMRHIQNIGEIKTDVGKARAWVRLSMEKKLLSRHLKQLLSDHELTKKLYKRYAFLRCDDEKEQFLYHLLSFNAVDYFCFTNVFTTILIPYHILIVPSKKLGGSMFTANPWICISGELGETQIMQIPRNVLEMTFECQNLGKLTTVQIGHDNSGLYAKWLVEYVMVRNEITGHTYKFPCGRWLGKGMDDGSLERILVGELLTSQPEVDERPCRTPPLQQSPSVIRRLVTISPNNKPKLNTGQIQESIGEAVNGIVKHFHKPEKERGSLTLLLCGECGLVSALEQAFQHGFKSPRLFKNVFIWDFLEKAQTYYETLEKNEVVPEENWHTRARNFCRFVTAINNTPRNIGKDGKFQMLVCLGARDHLLHHWIALLADCPITAHMYEDVALIKDHTLVNSLIRVLQTLQEFNITLETSLVKGIDI

binding [1]: binds
B5: WDR44/Rab11BP (protein, UniProt Q5JSH3 1-913)
chain: MASESDTEEFYDAPEDVHLGGGYPVGSPGKVGLSTFKETENTAYKVGNESPVQELKQDVSKKIIESIIEESQKVLQLEDDSLDSKGKELSDQATASPIVARTDLSNIPGLLAIDQVLPEESQKAESQNTFEETELELKKCFPSDETCEKPVDETTKLTQTSSTEQLNVLETETEVLNKEAVEVKGGGDVLEPVSSDSLSTKDFAAVEEVAPAKPPRHLTPEPDIVASTKKPVPARPPPPTNFPPPRPPPPSRPAPPPRKRKSELEFETLKTPDIDVPKENITSDSLLTASMASESTVKDSQPSLDLASATSGDKIVTAQENGKAPDGQTVAGEVMGPQRPRSNSGRELTDEEILASVMIKNLDTGEEIPLSLAEEKLPTGINPLTLHIMRRTKEYVSNDAAQSDDEEKLQSQPTDTDGGRLKQKTTQLKKFLGKSVKRAKHLAEEYGERAINKVKSVRDEVFHTDQDDPSSSDDEGMPYTRPVKFKAAHGFKGPYDFDQIKVVQDLSGEHMGAVWTMKFSHCGRLLASAGQDNVVRIWALKNAFDYFNNMRMKYNTEGRVSPSPSQESLSSSKSDTDTGVCSGTDEDPDDKNAPFRQRPFCKYKGHTADLLDLSWSKNYFLLSSSMDKTVRLWHISRRECLCCFQHIDFVTAIAFHPRDDRYFLSGSLDGKLRLWNIPDKKVALWNEVDGQTKLITAANFCQNGKYAVIGTYDGRCIFYDTEHLKYHTQIHVRSTRGRNKVGRKITGIEPLPGENKILVTSNDSRIRLYDLRDLSLSMKYKGYVNSSSQIKASFSHDFTYLVSGSEDKYVYIWSTYHDLSKFTSVRRDRNDFWEGIKAHNAVVTSAIFAPNPSLMLSLDVQSEKSEGNEKSEDAEVLDATPSGIMKTDNTEVLLSADFTGAIKVFVNKRKNVS
